Measured values: patent publication US20190358974A1, “COMPOSITIONS AND PARTICLES CONTAINING CELLULOSIC FIBERS AND STABILIZED- AND/OR ACTIVATED- UREASE INHIBITORS, AS WELL AS METHODS OF MAKING AND USING THE SAME” (INTERNATIONAL PAPER COMPANY, priority 2016, published 2019)
Some results were stated once for a whole list of compounds, not compound by compound.

Assay: Solubility of urease inhibitors in water

## NP(N)(=O)Oc1ccccc1 [PPDA, phenylphosphorodiamidate]
With hydroxyethyl urea
  solubility in water (concentration): 3%-5%
Without hydroxyethyl urea
  solubility in water (concentration): 0.2%-0.4%
